# From patent US20040220249A1, “Prevention of surgical adhesions using selective COX-2 inhibitors” (Children's Medical Center Corporation, priority 2003, published 2004)
# Test system: endothelium (CD31/PECAM-1) of granulation tissue
# Assay: Microvessel density of granulation tissue surrounding the silicone patch (CD31 immunostaining, image analysis)
# Type: in vivo, mice (C57BL/6)
# Settings: day 10; CD31-stained area as proportion of total area; mean ± SEM; control 6.4±0.6
# Experimental: Silicone patches and abdominal wall were fixed at 4 degrees Celsius in 10% formalin overnight and washed with phosphate buffered saline. The specimens were then embedded in paraffin and 5 micron sections were cut. Endothelial cells were identified by antibody staining against the endothelial cell surface antigen CD31 (PECAM-1) and a diaminobenzidine chromogen (BD Biosciences Pharmingen, San Diego, Calif.). After deparaffinization and rehydration, sections were incubated with proteinase K (Roche, Basel, Switzerland) for 30 min at 37° C. Non-specific binding sites were blocked for 30 min at room temperature with TNB blocking buffer (NEN Life Sciences, Boston, Mass.). Primary CD31 antiserum (Pharmingen) was added to the sections overnight at 4° C. […]
# Sections were taken from the abdominal wall, patch, and lesions at sacrifice on day 10. To quantitate vessel density, CD31 immunostained sections underwent digital image analysis using a Nikon Eclipse TE300 inverting photomicroscope with an attached Spot RT (Diagnostic Instruments Inc.) video camera linked to a personal computer. […] The proportion of the selected color was calculated as a percentage of total area and used as a measure of vessel density. Sections from 3 different mice for each of the study groups were examined and vascularization was scanned and quantified in 5 representative fields per section.
compound,measurement,value
COc1ccc2cc([C@H](C)C(=O)O)ccc2c1 [naproxen],microvessel density of granulation tissue surrounding the silicone patch,11.4±1.2
